Assay results from PMC7995733.
No constants are given. Whether binding was seen depends on the method and setting. In cells and extracts the contact can be indirect. Some results given as binding are weak or reduced against the parent protein; the word gives no strength.

Chains of the proteins cited; added tags and fusions are not shown. Residues count along the entry.
UniProt P19957, residues 61-117: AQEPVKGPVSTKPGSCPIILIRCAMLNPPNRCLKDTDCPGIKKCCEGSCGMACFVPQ

Legend:
[1] = target: Elafin (overexpressed in HCC cells) (UniProt P19957); assay: co-IP; RIPA lysate mixed with the corresponding concentrated conditioned medium; anti-EGFR or anti-Elafin, anti-IgG as negative control, overnight at 4 °C; Protein A/G PLUS-Agarose; western blotting with anti-EGFR or anti-Elafin
[2] = target: Elafin (endogenous, PLC-8024 cells) (human (endogenous in PLC-8024)) (UniProt P19957); assay: as above
[3] = target: wild-type EGFR (construct transfected in HEK293T) (UniProt P00533); assay: co-IP; HEK293T cells transfected with EGFR constructs, lysed at 48 h, lysates incubated with rElafin and subjected to co-IP; only the binder purified

| binding [1] | binding [2] | binding [3] | Substance |
| --- | --- | --- | --- |
| binds | binds |  | Epidermal growth factor receptor (endogenous, HCC cells) (from UniProt P00533 25-1210) |
|  |  | binds | recombinant Elafin (from UniProt P19957 61-117) |
